Hit rate of the full screen: of about 400,000 compounds, about 5,500 (1.4%) were called active. The shares of active, inactive and inconclusive entries below differ from those in the screen. The call rests on the fitted dose curve; in most records, active means well fitted cell-killing curve with a large enough effect; inconclusive means small, poorly fitted or top-dose-only effect, or effect the other way; inactive means flat fitted curve, though single readings scatter. A potency beside an inconclusive call is a rough fit, not a confirmed value.
Assay: qHTS assay for MDR1-selective chemotherapeutics: Primary screen using the parental adenocarcinoma cell KB-3-1; further: nearly all actives have a fitted effect of over 60% in size
Conditions: KB-3-1 viability, CellTiter-Glo ATP luminescence, 72 h; activity change, negative = cytotoxic: at 46.1 µM (top of the series)
Procedure, shortened: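 Luminescent ATP read-out (CellTiter-Glo) measures survival of drug-naive KB-3-1 cells after 72 h compound exposure at 37 °C. Titration series was screened from lowest to highest concentration, with DMSO vehicle plates as background controls.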
On the % scale 0 is the no-effect control and ±100 the full control effect; potency means the concentration at half of the fitted maximal effect.

| SMILES | Potency | activity change, negative = cytotoxic |
| --- | --- | --- |
| c1ccc(-c2ccc3ncccc3n2)cc1 | inactive | – |
| Cc1ccc(S(=O)(=O)N2CCN(C(=O)CSc3ncc(C(F)(F)F)cc3Cl)CC2)cc1 | inconclusive: 16.4 µM [cytotoxic, single point] | – |
| COc1ccc(-c2nc3c4ccccc4n(CC(=O)Nc4cc(F)ccc4F)c(=O)n3n2)cc1 | inactive | – |
| Cc1cc(O)c(-c2cc(C(=O)NCCc3ccc(S(N)(=O)=O)cc3)[nH]n2)cc1C | inconclusive: 29.1 µM [cytotoxic, single point] | – |
| CCN(CCCNC(=O)c1ccc2c(c1)NC(=O)CN2C)c1cccc(C)c1 | inconclusive: 20.6 µM [cytotoxic, single point] | – |
| CN(CC(=O)Nc1ccc(Cl)c(C(F)(F)F)c1)C(=O)c1cc(=O)c2ccccc2o1 | inconclusive: 14.6 µM [cytotoxic, partial curve] | – |
| COC(=O)NC1CC2C=CC1C1C=CC21 (configuration not stated) | inconclusive: 29.1 µM [rising, single point] | – |
| O=C(O)c1c(NC(=O)N(CCO)Cc2ccccc2)sc2c1CCCC2 | inactive | – |
| Cc1nn(S(=O)(=O)c2ccc(Br)cc2)c(C)c1S(=O)(=O)N1CCOCC1 | inactive | – |
| COc1ccc(N2CCN(C(=O)c3ccc(-n4nc(C)cc4C)cc3)CC2)cc1 | inactive | – |
| O=C1NC(=S)SC1=Cc1ccc(Cl)cc1 | inactive | – |
| Fc1ccc(Nc2nnc(-c3ccncc3)s2)cc1Cl | inactive | – |
| O=C(CN1C(=O)c2ccccc2S1(=O)=O)Nc1cc(S(=O)(=O)N2CCOCC2)ccc1N1CCOCC1 | inconclusive: 18.4 µM [rising, single point] | – |
| CN(C)c1ccc(C(=O)/C=C/c2ccccc2)cc1 | inconclusive: 29.1 µM [cytotoxic, single point] | – |
| COc1cccc(-n2c(=O)n(Cc3ccccc3)c(=O)c3[nH]cnc32)c1C | inactive | – |
| CCc1ccc(C(=O)Nc2ccc(OC)c(S(=O)(=O)N3CCCCC3)c2)cc1 | inconclusive: 13 µM [cytotoxic, partial curve] | – |
| C#CCn1c(=NC(=O)c2ccc(S(=O)(=O)N3CCc4ccccc4C3)cc2)sc2cc(S(N)(=O)=O)ccc21 | inconclusive: 23.1 µM [cytotoxic, single point] | – |
| CC(C)c1ccc(Nc2nc(Nc3ccc(Cl)cc3)nc(N3CCOCC3)n2)cc1 | inconclusive: 20.6 µM [rising, single point] | – |
| COc1ccc(N2CCN(C(=O)c3ccc(N(C)S(=O)(=O)c4ccc(OC)cc4)cc3)CC2)cc1 | inconclusive: 20.6 µM [cytotoxic, single point] | – |
| COc1ccc(COCC(O)CN2CC(C)OC(C)C2)cc1OC (configuration not stated) | inactive | – |
| CC(=O)NNc1nc(-c2ccccc2)c2cc(Br)ccc2n1 | inactive | – |
| CC1CCCCC1NC(=O)c1cc2c(=O)n3ccccc3nc2n1C (configuration not stated) | inactive | – |
| COc1ccccc1N1CCN(c2ncnc3c2oc2ccccc23)CC1 | active: 5.8 µM | – |
| Cc1ccc2cc(C#N)c(N3CCCN(C(=S)NCCCN(C)C)CC3)nc2c1 | inconclusive: 16.4 µM [cytotoxic, single point] | – |

| SMILES | Potency | activity change, negative = cytotoxic |
| --- | --- | --- |
| CCn1cc(C(=O)N2CCN(c3ccccc3F)CC2)c(=O)c2cc(S(=O)(=O)N(C)C3CCCCC3)ccc21 | inactive | – |
| COc1cc(NC(=O)c2ccccc2)ccc1NC(=O)c1cc2ccccc2o1 | inactive | – |
| Cc1ccc(-n2c(C)cc(/C=N/Nc3ccc([N+](=O)[O-])cn3)c2C)c(C)c1 | inconclusive: 20.6 µM [cytotoxic, single point] | – |
| NC(=O)C1CCCN(C(=O)CCC(=O)c2cccs2)C1 (configuration not stated) | inactive | – |
| CCc1ccc(OCC(=O)Nc2ccncc2)c(Br)c1 | inconclusive: 29.1 µM [cytotoxic, single point] | – |
| Oc1ccccc1-c1cc(-c2cccc(F)c2)n[nH]1 | inconclusive: 16.4 µM [cytotoxic, single point] | – |
| O=C(Nc1nc2ccccc2n1CCN1CCCC1)c1ccc(Cl)cc1 | inconclusive: 18.4 µM [cytotoxic, single point] | – |
| CN(CCc1ccccc1)C(=O)c1ccc(NC(=O)Cc2ccc([N+](=O)[O-])cc2)cc1 | inconclusive: 29.1 µM [cytotoxic, single point] | – |
| COC(=O)C[C@@H]1CC[C@@H](NS(=O)(=O)c2ccc(OC)cc2)[C@@H](CO)O1 | inactive | – |
| Cc1cc(=O)oc2c1ccc1oc(/C(=N/O)c3ccccc3)c(C)c12 | inconclusive: 23.1 µM [cytotoxic, single point] | – |
| COc1cc(C(=O)NCC(=O)N2CCN(S(=O)(=O)c3ccccc3C(F)(F)F)CC2)cc(OC)c1OC | inconclusive: 20.6 µM [cytotoxic, single point] | – |
| COc1ccc(NC(=S)N2CCC3CC2c2cc(-c4ccc5c(c4)OCO5)ccc23)c(OC)c1 (configuration not stated) | inconclusive: 25.9 µM [cytotoxic, single point] | – |
| O=C(NNC1=C(C(=O)C(F)(F)F)CCC1)c1ccccc1O | inconclusive: 20.6 µM [cytotoxic, single point] | – |
| CN(Cc1cccc(F)c1)C(=O)C(c1ccccc1)c1ccccc1 | inconclusive: 18.4 µM [cytotoxic, single point] | – |
| O=[N+]([O-])c1ccc(N/N=C/c2ccccc2O)cc1 | inconclusive: 20.6 µM [cytotoxic, single point] | – |
| CCc1ccc(NC(=O)C2CCN(S(=O)(=O)c3ccc4[nH]c5c(c4c3)CCCCC5)CC2)cc1 | inconclusive: 29.1 µM [cytotoxic, partial curve, poor fit] | – |
| C[C@@H]1CN([C@@H](C)CO)C(=O)c2cc(Br)cnc2O[C@H]1CN(C)C(=O)Nc1ccc2c(c1)OCO2 | inactive | – |
| CCN(C(=O)CSc1nnc(C)n1-c1ccccc1)C1CCS(=O)(=O)C1 (configuration not stated) | inactive | – |
| Cc1cccnc1Nc1nc(-c2ccc(O)cc2O)cs1 | inactive | – |
| O=c1c(-c2ccc3c(c2)OCCO3)coc2cc(OC3OC(CO)C(O)C(O)C3O)ccc12 (configuration not stated) | inconclusive: 25.9 µM [cytotoxic, single point] | – |
| CCOc1ccc2nc(NC(=O)c3ccc(C)o3)sc2c1 | inconclusive: 18.4 µM [cytotoxic, partial curve] | – |
| CCOC(=O)C1CCN(C(=O)C2CCN(C3=NS(=O)(=O)C(c4ccc(C)cc4)=C3CC)CC2)CC1 | inactive | – |
| O=c1c(Cc2c(F)cccc2Cl)c(O)ccn1C1CCCCCC1 | inactive | – |
| Cc1ccc(C(=O)O)cc1Nc1nc2ccccc2n2nnnc12 | inactive | – |

| SMILES | Potency | activity change, negative = cytotoxic |
| --- | --- | --- |
| O=C(NCc1ccc(F)cc1)c1cc(C2CCCCN2C(=O)c2ccc3c(c2)CCO3)on1 (configuration not stated) | active: 20.6 µM | – |
| Cc1ccccc1N(CC(=O)Nc1ccccc1C(=O)NCc1ccco1)S(=O)(=O)c1ccccc1 | active: 23.1 µM | – |
| O=C(CSCc1cccs1)N1CCCC1 | inactive | – |
| CSc1ccc(CN(C)CC(=O)NC(C)c2ccccc2)cc1 (configuration not stated) | inactive | – |
| Cc1ccc(C)c(C2NC(=O)c3ccccc3N2)c1 (configuration not stated) | inconclusive: 1.46 µM [cytotoxic, full curve, poor fit] | – |
| O=C(CNC(=O)c1ccc([N+](=O)[O-])cc1)N/N=C/c1c[nH]c2ccccc12 | inconclusive: 2.06 µM [rising, partial curve, poor fit] | – |
| CN(Cc1ccccc1)C(=O)Cn1nnc(-c2ccccc2)c1COc1ccc2ccccc2c1 | inconclusive: 29.1 µM [cytotoxic, single point] | – |
| COc1ccc(C(CNC(=O)c2cc3c(s2)CCC(C)C3)N2CCCC2)cc1 (configuration not stated) | active: 20.6 µM | – |
| CSc1ccc(Cl)c(C(=O)NCCOc2cc(C(C)C)ccc2C)c1 | – | inconclusive: -30.2% [cytotoxic] |
| COc1ccc(Oc2c(Cl)cnn(-c3ccc(Cl)c(Cl)c3)c2=O)cc1 | inconclusive: 16.4 µM [cytotoxic, single point] | – |
| CCOC(=O)c1cn(-c2ccccc2)nc1-c1cccnc1 | inconclusive: 8.2 µM [rising, partial curve, poor fit] | – |
| O=C(N/N=C/c1ccc[nH]1)c1cc2ccccc2cc1O | inconclusive: 23.1 µM [cytotoxic, single point] | – |
| Cc1ccc(Cc2c(C)c(C#N)c3[nH]c4ccccc4n3c2=O)cc1 | inconclusive: 29.1 µM [cytotoxic, single point] | – |
| CC(C)Cn1cnc2c(c1=N)C(c1ccccc1)C1=C(CC(C)(C)CC1=O)O2 (configuration not stated) | inconclusive: 18.4 µM [rising, single point] | – |
| COC(=O)c1cc2occc2n1CC(=O)Nc1cc(OC)cc(OC)c1 | inactive | – |
| Cc1cc(NC(=O)Cn2cnc3sc(C)c(-c4ccccc4)c3c2=O)no1 | inactive | – |
| COc1cc(/C=C(\C#N)C(=O)N2CCOCC2)cc(Br)c1O | inactive | – |
| Cc1c(C(=O)NCc2ccc3c(c2)OCO3)oc2ccc(Br)cc12 | inconclusive: 11.6 µM [cytotoxic, partial curve, poor fit] | – |
| CC1(C)CC2C1CCC1(O)CC2(C)CCC1N(O)c1ccc(C(=O)NCCO)cn1 (configuration not stated) | inconclusive: 29.1 µM [cytotoxic, single point] | – |
| CNc1ccc(Br)cc(C(=O)/C=C/c2ccc3c(c2)OCO3)c1=O | inconclusive: 29.1 µM [cytotoxic, single point] | – |
| O=c1c2ccccc2nc2ccc(NCc3ccco3)nn12 | inconclusive: 29.1 µM [rising, single point] | – |
| CN(C)c1ccc(C=Nc2ccc(/C=C3\C=Cc4ccccc43)cc2)cc1 | inactive | – |
| O=C1C=CC(O)(c2cc(=O)c3c(O)cc(O)cc3o2)C=C1 | inconclusive: 18.4 µM [cytotoxic, partial curve, poor fit] | – |
| O=C(Nc1ccc(-c2csc(Nc3cccc(C(F)(F)F)c3)n2)cc1)c1ccccc1 | inconclusive: 23.1 µM [cytotoxic, single point] | – |

In the list so far, 5 have a thiophene ring, fused or not:

| SMILES | Potency | activity change, negative = cytotoxic |
| --- | --- | --- |
| O=C(O)c1c(NC(=O)N(CCO)Cc2ccccc2)sc2c1CCCC2 | inactive | – |
| NC(=O)C1CCCN(C(=O)CCC(=O)c2cccs2)C1 (configuration not stated) | inactive | – |
| O=C(CSCc1cccs1)N1CCCC1 | inactive | – |
| COc1ccc(C(CNC(=O)c2cc3c(s2)CCC(C)C3)N2CCCC2)cc1 (configuration not stated) | active: 20.6 µM | – |
| Cc1cc(NC(=O)Cn2cnc3sc(C)c(-c4ccccc4)c3c2=O)no1 | inactive | – |

— PubChem BioAssay AID1347075 (National Center for Advancing Translational Sciences (NCATS), 2019)
